PubChem BioAssay AID504744 – Drosophila RNAi Screening Center, 2011
The deposit covers about 23,000 reagents; below is an unselected part of those that have a named target and a result. Over the whole deposit, 98 (0.43%) got an active call. 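Only hit calls are given; the phospho-dAkt signals, z-scores and hit direction were not deposited.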 A plus sign joins genes that one reagent is predicted to hit.

- Screen: 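Uncover factors, including feedback loops, that control dAkt activation in fly cells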 (primary screen)
- Cell system: Drosophila Kc167 cells
- Reagents: long dsRNA against Drosophila genes, 250 ng dsRNA per well of a 384-well plate
- Duration: 3 days of knock-down, then overnight serum-free starvation before stimulation
- Conditions: bovine insulin at 387 nM for 10 minutes after 12 h without serum
- Read-out: 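Per-well phospho-dAkt level from an in-cell fluorescent antibody stain, divided by a DNA-dye signal; log2 residuals turned into z-scores that take cell number into account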
- Active means: 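Hit in the insulin screen when the two-replicate mean z-score is more extreme than plus or minus 2.5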

| predicted target | dsRNA | Outcome |
| --- | --- | --- |
| CG6426 | DRSC06985 | inactive |
| Orc5 | DRSC03390 | inactive |
| CG12084 | DRSC08247 | inactive |
| CG32945 | DRSC12014 | inactive |
| CG9837 | DRSC16573 | inactive |
| CG13436 | DRSC06396 | inactive |
| Jon25Biii | DRSC03115 | inactive |
| CG9411 | DRSC20184 | active |
| dsd | DRSC13829 | inactive |
| dsd | DRSC15850 | inactive |
| CG34337 | DRSC18435 | inactive |
| CycY | DRSC02420 | inactive |
| CG7849 | DRSC04895 | inactive |
| Rpp20 + CG33932 | DRSC19467 | inactive |
| CG12498 | DRSC18635 | inactive |
| CG10237 | DRSC02029 | inactive |
| CG15042 | DRSC19618 | inactive |
| PAPLA1 | DRSC03095 | inactive |
| PAPLA1 | DRSC03096 | inactive |
| CG17191 | DRSC15185 | inactive |
| MSBP | DRSC20146 | inactive |
| HipHop | DRSC10734 | inactive |
| PIG-B | DRSC08216 | inactive |
| PIG-B | DRSC22598 | inactive |
| mRpL52 | DRSC06585 | inactive |
| rtet | DRSC14160 | inactive |
| AIMP2 | DRSC09877 | inactive |
| CG4194 | DRSC18520 | inactive |
| CG10834 | DRSC03693 | inactive |
| RNaseP:RNA | DRSC22967 | inactive |
| Pvf3 | DRSC02284 | inactive |
| Pvf3 | DRSC02285 | inactive |
| Pvf3 | DRSC02286 | inactive |
| Pvf3 | DRSC02751 | inactive |
| Spec2 (retired record) | DRSC12258 | inactive |
| Spec2 (retired record) | DRSC22886 | inactive |
| CG5188 | DRSC02826 | inactive |
| Ser8 | DRSC06891 | inactive |
| CG17147 | DRSC10249 | inactive |
| CG30349 | DRSC06421 | inactive |
| CG30349 | DRSC06839 | inactive |
| CG7970 | DRSC08605 | inactive |
| SNCF | DRSC10115 | inactive |
| CG11562 | DRSC00316 | inactive |
| CG17839 | DRSC10290 | inactive |
| CG17839 | DRSC10291 | inactive |
| CG33919 | DRSC04940 | inactive |
| CG18536 | DRSC06763 | inactive |
| Acph-1 | DRSC14103 | inactive |
| be | DRSC19607 | inactive |
| be | DRSC19944 | inactive |
| be | DRSC19945 | inactive |
| CG31816 | DRSC01547 | inactive |
| CG10183 | DRSC14203 | inactive |
| CG4854 | DRSC15663 | inactive |
| Ote | DRSC07498 | inactive |
| CG17567 (retired record) | DRSC02627 | inactive |
| CG17567 (retired record) | DRSC22537 | inactive |

The list goes on, starting with the last 8 of the part before.
| predicted target | dsRNA | Outcome |
| --- | --- | --- |
| be | DRSC19944 | inactive |
| be | DRSC19945 | inactive |
| CG31816 | DRSC01547 | inactive |
| CG10183 | DRSC14203 | inactive |
| CG4854 | DRSC15663 | inactive |
| Ote | DRSC07498 | inactive |
| CG17567 (retired record) | DRSC02627 | inactive |
| CG17567 (retired record) | DRSC22537 | inactive |
| CG7369 | DRSC11822 | inactive |
| Sik3 | DRSC06505 | inactive |
| Sik3 | DRSC06771 | inactive |
| Cpr67Fa1 | DRSC10932 | inactive |
| COX1 (retired record) | DRSC21275 | inactive |
| CG14258 | DRSC14753 | inactive |
| AANATL4 | DRSC06774 | inactive |
| Vha44 | DRSC07572 | inactive |
| Vha44 | DRSC07573 | inactive |
| CG15011 | DRSC08464 | inactive |
| eEF1alpha2 | DRSC14079 | inactive |
| eEF1alpha2 | DRSC16658 | inactive |
| VAChT | DRSC13311 | inactive |
| VAChT | DRSC16608 | inactive |
| CG14654 (retired record) | DRSC12240 | inactive |
| mrn | DRSC10913 | inactive |
| Hsc70-2 | DRSC16710 | active |
| CG13949 | DRSC00367 | inactive |
| CG14835 | DRSC10205 | inactive |
| TwdlH | DRSC14735 | inactive |
| nw | DRSC06749 | inactive |
| nw | DRSC06896 | inactive |
| Tsp33B | DRSC02418 | inactive |
| CG17776 | DRSC18136 | inactive |
| CG7560 | DRSC10879 | inactive |
| CG9308 | DRSC04539 | inactive |
| BEAF-32 + CG42254 (retired record) | DRSC05503 | inactive |
| Lint-1 | DRSC19822 | inactive |
| sdt | DRSC17555 | inactive |
| sdt | DRSC17556 | inactive |
| sdt | DRSC17860 | inactive |
| sdt | DRSC17861 | inactive |
| sdt | DRSC18022 | inactive |
| sdt | DRSC18025 | inactive |
| sdt | DRSC18026 | inactive |
| sdt | DRSC18027 | inactive |
| sdt | DRSC18108 | inactive |
| Orct | DRSC16777 | inactive |
| Tasp1 | DRSC10495 | inactive |
| CG34217 | DRSC05083 | inactive |
| CG15233 | DRSC04967 | inactive |
| cpb | DRSC00809 | inactive |
| CG8891 | DRSC03120 | inactive |
| TfIIA-S-2 | DRSC17791 | inactive |
| CG30344 | DRSC22510 | inactive |
| CG42337 | DRSC11686 | inactive |
| CG42337 | DRSC11687 | inactive |
| CG4017 | DRSC02733 | inactive |
| dbo | DRSC11339 | inactive |
